{"sequences": {"note": "Protein sequences, listed by entry. Tags and fused reporters are not part of them. Lines headed by an entry give the natural chain unless they say otherwise; changes in a name come on top.", "UniProt P05771, whole entry": "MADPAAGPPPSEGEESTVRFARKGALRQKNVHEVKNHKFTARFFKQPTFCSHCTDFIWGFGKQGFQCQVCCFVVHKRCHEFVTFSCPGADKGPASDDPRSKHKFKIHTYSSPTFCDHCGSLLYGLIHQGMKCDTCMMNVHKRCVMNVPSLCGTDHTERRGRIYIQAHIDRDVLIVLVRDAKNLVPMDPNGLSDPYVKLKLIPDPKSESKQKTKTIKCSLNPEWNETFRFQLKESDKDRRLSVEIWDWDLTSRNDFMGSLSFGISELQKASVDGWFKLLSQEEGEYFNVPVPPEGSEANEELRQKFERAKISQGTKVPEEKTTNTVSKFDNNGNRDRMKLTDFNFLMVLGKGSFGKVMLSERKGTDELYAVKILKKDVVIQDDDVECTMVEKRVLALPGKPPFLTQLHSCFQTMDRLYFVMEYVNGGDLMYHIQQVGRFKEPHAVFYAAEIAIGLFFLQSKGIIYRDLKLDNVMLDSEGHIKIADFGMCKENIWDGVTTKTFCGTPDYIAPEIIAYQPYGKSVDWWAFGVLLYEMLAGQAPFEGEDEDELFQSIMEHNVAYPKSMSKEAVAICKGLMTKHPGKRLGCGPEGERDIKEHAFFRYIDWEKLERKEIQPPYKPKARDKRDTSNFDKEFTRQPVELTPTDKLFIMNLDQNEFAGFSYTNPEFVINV", "UniProt Q05513": "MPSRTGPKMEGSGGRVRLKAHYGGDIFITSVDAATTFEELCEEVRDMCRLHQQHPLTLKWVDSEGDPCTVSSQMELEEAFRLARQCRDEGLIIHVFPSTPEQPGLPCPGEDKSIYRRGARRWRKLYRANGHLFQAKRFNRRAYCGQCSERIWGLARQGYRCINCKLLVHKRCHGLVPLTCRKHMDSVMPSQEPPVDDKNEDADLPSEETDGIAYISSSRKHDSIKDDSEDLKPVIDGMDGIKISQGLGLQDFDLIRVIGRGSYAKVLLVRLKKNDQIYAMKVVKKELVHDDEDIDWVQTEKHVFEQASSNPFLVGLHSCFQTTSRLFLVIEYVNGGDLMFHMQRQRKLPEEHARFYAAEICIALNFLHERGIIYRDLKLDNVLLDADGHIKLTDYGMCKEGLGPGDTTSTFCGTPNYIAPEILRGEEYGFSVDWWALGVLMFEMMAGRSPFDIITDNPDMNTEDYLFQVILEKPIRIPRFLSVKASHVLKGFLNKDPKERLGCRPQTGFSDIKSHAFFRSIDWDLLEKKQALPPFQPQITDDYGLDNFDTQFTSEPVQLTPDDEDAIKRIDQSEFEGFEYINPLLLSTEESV"}, "source": "patent US20110039770A1", "about": "“INHIBITORS OF PROTEIN KINASE C ISOFORMS AND USES THEREOF” (PHARMAGAP INC., priority 2005, published 2011)", "key": {"[1]": {"target": "PKC beta 1 (Homo sapiens, UniProt P05771)", "test": "PKC isoform protein levels in cancer cell lines after TIM 10 (Western blot)", "format": "cell-based", "design": "endogenous in cells", "settings": "5 mM; 24 hrs", "method": "(§1) The effect of compound TIM 10 on the levels of protein for various PKC isoforms was assessed as generally described below in the following human cancer cell lines: MDA MB-231 breast adenocarcinoma cells (ATCC HTB-26); T24 bladder transitional cell carcinoma (ATCC HTB-4); SKOV-3 ovary adenocarcinoma (ATCC HTB-77); MCF-7 breast adenocarcinoma (ATCC HTB-22); Capan-2 pancreatic adenocarcinoma (ATCC HTB-80); NCI-H661 NSCL large cells (ATCC HTB-183); Calu-6 probable lung anaplastic carcinoma (ATCC HTB-56) and Calu-3 lung adenocarcinoma (ATCC HTB-55).\n(§2) Cells representative of the different cancer types were cultured according to ATCC instructions. At subconfluence, the cells were trypsinized and compound 10 (5 mM) was incorporated into the cells by pinocytic influx endocytosis according to the manufacturer's instructions (Molecular Probe). Matching controls were treated accordingly except that vehicle was incorporated instead of compound 10. Following pinocytic influx, the cells were seeded and allowed to grow in fresh medium for 24 hrs. The cell cultures were further extracted using RIPA lysis buffer according to standard protocol. The protein content of each lysate was measured using Bradford protein estimation procedure (BioRad) and normalized. Following addition of sample buffer, the proteins from 15 μl of each extract were separated by electrophoresis, electro-transferred to nitrocellulose membranes and the various isoforms of PKC were detected using appropriate antibodies (Santa Cruz Biotechnology, Inc., CA). The relative intensity of bands of the expected molecular weight was estimated after scanning and the % decrease in the band intensity relative to control was calculated."}, "[2]": {"target": "PKC zeta (Homo sapiens, UniProt Q05513)", "test": "PKC isoform protein levels in cancer cell lines after TIM 10 (Western blot)", "format": "cell-based", "design": "endogenous in cells", "settings": "5 mM; 24 hrs", "method": "as §1, §2"}}, "note": "Not every detail of the peptide structures is certain; ends, links or a residue may be inferred. For at least one compound, name, drawing or mass did not settle the structure. Where a SMILES comes first, the peptide text is derived from it. The star is where a group is joined. PNA(A) = NCCN(CC(=O)*)C(=O)Cn1cnc2c(N)ncnc21", "data": [{"smiles": "CC[C@H](C)[C@H](NC(=O)[C@H](CO)NC(=O)[C@@H](NC(=O)CNC(=O)[C@@H](NC(=O)[C@H](CC(C)C)NC(=O)[C@H](CC(N)=O)NC(=O)[C@H](CCC(N)=O)NC(=O)[C@H](C)NC(=O)[C@H](CC(=O)O)NC(=O)[C@H](CCCCN)NC(=O)CNC(=O)CNC(=O)CNC(=O)CNC(=O)CNC(=O)CNC(=O)CNC(=O)[C@H](CC(C)C)NC(=O)[C@H](CCCNC(=N)N)NC(=O)[C@H](Cc1ccccc1)NC(=O)[C@H](CCCCNC(=O)CN(CCN)C(=O)Cn1cnc2c(N)ncnc21)NC(=O)[C@H](CCCNC(=N)N)NC(=O)[C@H](CCCNC(=N)N)NC(=O)[C@H](Cc1ccccc1)NC(C)=O)[C@@H](C)CC)[C@@H](C)CC)C(N)=O", "note": "[TIM 10] (Ac-FRRK(PNA(A))FRLGGGGGGGKDAQNLIGISI-NH2)", "values": [{"measurement": "band intensity of PKC beta 1", "setting": "[1]", "result": "does not have this effect"}, {"measurement": "band intensity of PKC zeta", "setting": "[2]", "result": "does not have this effect"}]}]}
